{"sequences": {"note": "Sequences of proteins named here, by UniProt entry; tags and fusion partners are left off.", "UniProt O43597": "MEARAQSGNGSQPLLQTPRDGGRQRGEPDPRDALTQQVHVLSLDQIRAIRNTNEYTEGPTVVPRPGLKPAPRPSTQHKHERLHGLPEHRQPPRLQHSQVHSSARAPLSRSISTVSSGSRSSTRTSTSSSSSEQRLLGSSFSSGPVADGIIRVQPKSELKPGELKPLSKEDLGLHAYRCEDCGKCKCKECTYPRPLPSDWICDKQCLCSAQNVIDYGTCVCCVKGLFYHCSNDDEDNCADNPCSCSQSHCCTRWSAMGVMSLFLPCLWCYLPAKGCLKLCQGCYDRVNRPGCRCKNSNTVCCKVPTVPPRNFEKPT"}, "source": "paper doi:10.1101/2025.06.13.659437", "biological_target": "mNG-SPRY2 (full length) (human) (UniProt O43597)", "assay": "FRET or BRET", "note": "No constants are given. Whether binding was seen depends on the method and setting. In cells and extracts the contact can be indirect. Some results given as binding are weak or reduced against the parent protein; the word gives no strength."}
{"substance": "mNG-SPRY2 (full length) (from UniProt O43597 1-315)", "values": [{"measurement": "binding", "value": "binds"}]}
